Results from paper PMC12310199.
Results are given in words; binding and its absence hold for the method and conditions named. In cells and extracts the contact can be indirect. Some binding calls cover weakened binding; strength is not graded here. Blank lines part the entries; values can stand above or below the substance they belong to.

Protein sequences, listed by entry. Tags and fused reporters are not part of them.
UniProt P61289: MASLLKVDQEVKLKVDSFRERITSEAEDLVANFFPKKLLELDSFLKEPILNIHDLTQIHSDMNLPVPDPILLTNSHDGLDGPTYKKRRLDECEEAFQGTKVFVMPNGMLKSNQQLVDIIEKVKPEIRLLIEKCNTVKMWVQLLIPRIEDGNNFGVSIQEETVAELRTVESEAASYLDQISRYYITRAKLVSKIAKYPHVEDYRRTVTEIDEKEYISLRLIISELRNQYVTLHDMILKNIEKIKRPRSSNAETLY

Legend:
[1] = biological target: Flag-C1QBP 1-167 (UniProt Q07021); assay: pull-down; 293T cells transfected with Myc-PA28γ and Flag-C1QBP (full length or truncations) for 36 hr; called pull-down by the paper, the appendix describes only an immunoprecipitation protocol
[2] = biological target: Flag-C1QBP, full length (UniProt Q07021); assay: as above
[3] = biological target: Flag-C1QBP, full length (UniProt Q07021); assay: co-IP; 293T cells transfected with Flag-C1QBP wild-type or mutations (T76A and G78N) for 48 hr
[4] = biological target: Flag-C1QBP-G78N (UniProt Q07021); assay: as above
[5] = biological target: Flag-C1QBP-T76A (UniProt Q07021); assay: as above
[6] = biological target: Complement 1q binding protein (C1QBP), endogenous (human (endogenous in HSC-3 and UM1)) (UniProt Q07021); assay: co-IP; endogenous proteins in HSC-3 cells; lysis in 1% NP-40 with protease inhibitors, antibody at 4°C overnight, protein G agarose, western blot
[7] = biological target: Complement 1q binding protein (C1QBP), endogenous (human (endogenous in HSC-3 and UM1)) (UniProt Q07021); assay: proximity ligation; Duolink PLA kit in UM1 cells with antibodies to PA28γ and C1QBP; signal in cytoplasm and nucleus

binding [1]: binds | binding [2]: binds
Substance: Myc-PA28γ (from UniProt P61289 1-254)

binding [3]: binds | binding [4]: binds | binding [5]: binds
Substance: PA28γ in 293T cells (co-immunoprecipitation of Figure 1J) (from UniProt P61289 1-254)

binding [6]: binds | binding [7]: binds
Substance: Proteasome activator 28γ (PA28γ), endogenous (from UniProt P61289 1-254)
